# Assay results published in PubChem BioAssay AID504467 (National Center for Advancing Translational Sciences (NCATS), 2011).
# Out of some 330,000 compounds screened, about 7,700 (2.3%) were called active. This list was built around the results that the source calls inconclusive (neither active nor inactive); the mix of calls is not that of the screen. Calls come from the whole dose curve; as a rule, active = well fitted inhibition curve with a large enough effect; inconclusive = small, poorly fitted or top-dose-only effect, or effect the other way; inactive = flat fitted curve, though single readings scatter. Where the call is inconclusive, the potency comes from a doubtful curve fit.
# Assay: qHTS screen for small molecules that inhibit ELG1-dependent DNA repair in human embryonic kidney (HEK293T) cells expressing luciferase-tagged ELG1; note: nearly all actives have a fitted effect of over 55% in size
# Settings: HEK293T ELG1-luciferase reporter, luminescence, 16 h, DNA damage induced by 5-fluorouridine; series mostly up to 46.1 µM
# In short: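 Overnight (16 hr) co-exposure of 2,000 cells/well to 5-fluorouridine and compound at 37 °C preceded detection. Luciferase was quantified via ONE-Glo luminescence; loss of signal denotes inhibition.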
# Potency is the fitted concentration of half-maximal effect.
row,SMILES,Potency
1,Nc1c(Cl)ncnc1N1CCCC1,inactive
2,CCOC(=O)Cc1csc(NS(=O)(=O)c2ccc(C(F)(F)F)cc2)n1,"inconclusive: 6.51 µM [inhibitor, single point]"
3,O=C(NCCC(=O)N1CCN(Cc2c(F)cccc2Cl)CC1)c1ccc(Cl)cc1,inactive
4,Cc1nn(CC(=O)N2CCCC2)c(=O)c2cc3cc(F)ccc3n12,"inconclusive: 16.4 µM [activator, partial curve, poor fit]"
5,CCOc1ccc(-c2nc(-c3ccccc3)no2)cc1OCC,"inconclusive: 8.2 µM [activator, partial curve]"
6,O=C(NC(=S)Nc1nc(-c2ccc([N+](=O)[O-])cc2)cs1)c1ccco1,"inconclusive: 16.4 µM [activator, partial curve]"
7,COc1ccccc1-n1c(SCC(=O)Nc2cc(C)on2)nc2c([nH]c3ccccc32)c1=O,inactive
8,O=C(O)c1cccc(-n2c(/C=C/c3ccccc3)nc3ccccc3c2=O)c1,inactive
9,CCOc1ccc(NC(=O)C2CCC(CNc3c(N4CCCCC4)c(=O)c3=O)CC2)cc1 (stereo not given),"inconclusive: 10.3 µM [inhibitor, partial curve, poor fit]"
10,O=C(N/N=C/c1cccnc1)c1cccc(Br)c1,"inconclusive: 11.2 µM [activator, single point]"
11,CNc1cc(F)nc(F)n1,inactive
12,Cc1ccc(S(=O)(=O)Nc2cc3c4c(c2)CCN4C(=O)CC3)cc1,"inconclusive: 15.8 µM [activator, partial curve, poor fit]"
13,O=C(Nc1ccc(-c2csc(Nc3ccccc3)n2)cc1)c1cccc(C(F)(F)F)c1,"inconclusive: 23.1 µM [inhibitor, single point]"
14,CN(C)C(=O)CSc1nnc(-c2cc(-c3cccs3)nc3ccccc23)o1,active: 11.6 µM
15,S=C(NCc1ccc(Cl)cc1)NC12CC3CC(CC(C3)C1)C2,"inconclusive: 25.9 µM [inhibitor, single point]"
16,CCOC(=O)c1c(N)ssc1=S,"inconclusive: 14.6 µM [inhibitor, partial curve]"
17,CNCCCCOc1ccccc1-c1ccccc1,inactive
18,CCCCCCNc1cc(C)oc(=O)c1C(C)=O,"inconclusive: 14.6 µM [activator, partial curve]"
19,COc1cc2oc(=O)ccc2cc1[C@@H](O)[C@@H]1OC(C)(C)OC1(C)C,inactive
20,O=[N+]([O-])c1ccc(O)c(C=Nc2ccc3c(c2)OCCO3)c1,"inconclusive: 18.4 µM [activator, partial curve]"
21,COc1cccc(CNS(=O)(=O)c2ccc3c(c2)C(C)(C)C(=O)N3C)c1,inactive
22,Cc1cccc(N2C(=O)CS/C2=N\NC(=O)c2ccc(Cl)cc2)c1C,"inconclusive: 18.4 µM [activator, single point]"
23,CCOC(=O)c1csc(-c2snnc2C)n1,"inconclusive: 13 µM [activator, single point]"

row,SMILES,Potency
1,Cc1ccc(OCCN2C(=O)S/C(=C\c3ccc(C)o3)C2=O)cc1,inactive
2,COc1ccc(CCn2c(C(C)C)nc3oc4ccccc4c(=O)c3c2=O)cc1,"inconclusive: 20.6 µM [inhibitor, partial curve]"
3,NC(=O)CC(NC(=O)c1ccc(Br)cc1)c1ccc(N2CCN(c3ccccn3)CC2)c([N+](=O)[O-])c1 (stereo not given),"inconclusive: 32.6 µM [inhibitor, partial curve, poor fit]"
4,CCOP(=O)(OCC)/C(=C/N1CCCCC1)NC(=O)c1ccccc1,"inconclusive: 29.1 µM [activator, single point]"
5,O=C(Nc1ccc(S(=O)(=O)NC2=NCCCCC2)cc1)c1ccc2ccccc2n1,"inconclusive: 32.6 µM [inhibitor, partial curve, poor fit]"
6,CCN(CC)C(=S)NC(=O)c1cccnc1,inactive
7,CC(=O)c1ccc(Nc2cc(C)nc3c(C)cccc23)cc1,"inconclusive: 20.6 µM [inhibitor, single point]"
8,Cc1ccc(Cn2c(N3CCCCCC3)nc3c2c(=O)[nH]c(=O)n3C)cc1,"inconclusive: 29.1 µM [inhibitor, single point]"
9,Cc1cc(F)ccc1S(=O)(=O)NCC(c1cccnc1)N1CCc2ccccc21 (stereo not given),"inconclusive: 5.17 µM [inhibitor, partial curve]"
10,COC(=O)CC1(C(=O)OC)Oc2ccc(Br)cc2C(=O)N1c1cccc(Cl)c1Cl (stereo not given),"inconclusive: 29.1 µM [inhibitor, single point]"
11,COc1ccc(/C=C2\Sc3ccc(C(=O)NCC4CCCO4)cc3N(C)C2=O)cc1 (stereo not given),inactive
12,CC(Sc1nc2scc(-c3ccccc3)c2c(=O)[nH]1)C(=O)NC(N)=O (stereo not given),inactive
13,Cc1ccc(-n2c(Cc3cccs3)nnc2SCC(=O)Nc2ccc(S(N)(=O)=O)cc2)cc1,"inconclusive: 32.6 µM [inhibitor, single point]"
14,CCCn1nnc2ccccc2c1=O,"inconclusive: 25.9 µM [activator, partial curve, poor fit]"
15,O=C1CCCN1CC(O)CS(=O)(=O)Cc1ccc(Cl)c(Cl)c1 (stereo not given),inactive
16,COc1ccc(Nc2ccc3c(c2)=NC2(CCCCC2)[N+]=3[O-])cc1,"inconclusive: 9.2 µM [inhibitor, partial curve, poor fit]"
17,COC(=O)c1cc(OC)c(OC)cc1N,"inconclusive: 29.1 µM [activator, partial curve, poor fit]"
18,CSc1ccc(C#N)cc1NC(=O)c1ccccc1C,"inconclusive: 16.4 µM [activator, single point]"
19,CCOC(=O)C1(Cc2ccccc2)CCCN(C(=O)c2cnn(CC)c2)C1 (stereo not given),"inconclusive: 16.4 µM [activator, partial curve]"
20,CC(C)NC(=O)c1ccc(-c2ccccc2C(F)(F)F)o1,"inconclusive: 16.4 µM [activator, partial curve]"
21,COc1cccc(C(=O)Nc2ccc(S(=O)(=O)NCc3ccco3)cc2)c1,"inconclusive: 5.8 µM [inhibitor, partial curve, poor fit]"
22,COc1cc2c(cc1OC)C(COc1ccc(F)cc1)N(C(C)=O)CC2 (stereo not given),"inconclusive: 32.6 µM [inhibitor, single point]"

# Rewritten with bars between the fields: part of the list above
row | SMILES | Potency
14 | CCCn1nnc2ccccc2c1=O | inconclusive: 25.9 µM [activator, partial curve, poor fit]
15 | O=C1CCCN1CC(O)CS(=O)(=O)Cc1ccc(Cl)c(Cl)c1 (stereo not given) | inactive
16 | COc1ccc(Nc2ccc3c(c2)=NC2(CCCCC2)[N+]=3[O-])cc1 | inconclusive: 9.2 µM [inhibitor, partial curve, poor fit]
17 | COC(=O)c1cc(OC)c(OC)cc1N | inconclusive: 29.1 µM [activator, partial curve, poor fit]
18 | CSc1ccc(C#N)cc1NC(=O)c1ccccc1C | inconclusive: 16.4 µM [activator, single point]
19 | CCOC(=O)C1(Cc2ccccc2)CCCN(C(=O)c2cnn(CC)c2)C1 (stereo not given) | inconclusive: 16.4 µM [activator, partial curve]
20 | CC(C)NC(=O)c1ccc(-c2ccccc2C(F)(F)F)o1 | inconclusive: 16.4 µM [activator, partial curve]
21 | COc1cccc(C(=O)Nc2ccc(S(=O)(=O)NCc3ccco3)cc2)c1 | inconclusive: 5.8 µM [inhibitor, partial curve, poor fit]
